Laboratory results taken from paper PMC8406326.

Chains of the proteins cited; added tags and fusions are not shown. Residues count along the entry.
UniProt P27773, residues 25-505: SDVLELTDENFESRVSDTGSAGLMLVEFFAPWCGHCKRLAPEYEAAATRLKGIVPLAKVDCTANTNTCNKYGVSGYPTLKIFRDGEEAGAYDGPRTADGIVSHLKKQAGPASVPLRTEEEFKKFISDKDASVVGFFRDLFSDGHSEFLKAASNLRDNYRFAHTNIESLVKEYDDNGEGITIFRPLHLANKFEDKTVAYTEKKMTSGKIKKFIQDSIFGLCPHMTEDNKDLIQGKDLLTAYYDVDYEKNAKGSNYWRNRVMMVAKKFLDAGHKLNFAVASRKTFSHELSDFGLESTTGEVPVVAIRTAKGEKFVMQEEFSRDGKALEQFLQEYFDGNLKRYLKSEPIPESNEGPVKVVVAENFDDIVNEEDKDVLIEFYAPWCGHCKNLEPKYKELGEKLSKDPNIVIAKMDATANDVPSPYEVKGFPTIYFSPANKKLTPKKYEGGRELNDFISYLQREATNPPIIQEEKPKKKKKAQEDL
UniProt P48036: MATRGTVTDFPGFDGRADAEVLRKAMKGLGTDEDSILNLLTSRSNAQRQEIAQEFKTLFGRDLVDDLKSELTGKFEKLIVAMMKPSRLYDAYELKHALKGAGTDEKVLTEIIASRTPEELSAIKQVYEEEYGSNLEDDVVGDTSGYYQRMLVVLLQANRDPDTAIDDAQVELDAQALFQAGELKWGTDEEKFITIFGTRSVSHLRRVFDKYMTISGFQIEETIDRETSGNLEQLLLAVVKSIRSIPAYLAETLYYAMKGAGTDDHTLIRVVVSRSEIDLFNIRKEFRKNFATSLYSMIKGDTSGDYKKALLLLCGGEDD
UniProt P62259: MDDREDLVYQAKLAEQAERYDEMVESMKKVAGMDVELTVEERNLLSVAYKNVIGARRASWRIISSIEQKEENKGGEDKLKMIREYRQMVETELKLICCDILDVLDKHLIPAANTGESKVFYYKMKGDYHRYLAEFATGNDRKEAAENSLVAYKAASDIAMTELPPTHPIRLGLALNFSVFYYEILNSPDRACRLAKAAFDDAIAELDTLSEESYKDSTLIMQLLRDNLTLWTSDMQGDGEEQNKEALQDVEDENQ
UniProt Q9WUU7, residues 64-306: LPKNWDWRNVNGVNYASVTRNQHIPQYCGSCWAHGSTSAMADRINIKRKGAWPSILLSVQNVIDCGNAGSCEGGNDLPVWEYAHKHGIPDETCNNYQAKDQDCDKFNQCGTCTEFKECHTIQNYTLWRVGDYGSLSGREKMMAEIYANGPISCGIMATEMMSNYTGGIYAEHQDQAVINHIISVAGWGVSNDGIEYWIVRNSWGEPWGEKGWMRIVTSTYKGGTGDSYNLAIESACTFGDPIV
UniProt P63158: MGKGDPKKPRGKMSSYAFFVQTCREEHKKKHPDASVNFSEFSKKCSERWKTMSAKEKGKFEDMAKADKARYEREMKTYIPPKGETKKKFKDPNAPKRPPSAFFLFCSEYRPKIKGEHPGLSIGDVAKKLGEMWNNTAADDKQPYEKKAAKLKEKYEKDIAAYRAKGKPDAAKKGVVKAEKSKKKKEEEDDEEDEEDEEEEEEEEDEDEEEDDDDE
UniProt P31996, residues 21-326: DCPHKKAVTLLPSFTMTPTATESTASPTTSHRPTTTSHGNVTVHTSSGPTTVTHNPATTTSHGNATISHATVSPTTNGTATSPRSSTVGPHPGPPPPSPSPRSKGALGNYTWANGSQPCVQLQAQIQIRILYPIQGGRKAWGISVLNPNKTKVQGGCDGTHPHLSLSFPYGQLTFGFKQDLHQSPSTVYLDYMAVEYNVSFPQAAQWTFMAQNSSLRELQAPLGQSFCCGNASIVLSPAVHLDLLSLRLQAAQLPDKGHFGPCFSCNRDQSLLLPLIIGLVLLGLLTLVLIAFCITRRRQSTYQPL
UniProt P07356: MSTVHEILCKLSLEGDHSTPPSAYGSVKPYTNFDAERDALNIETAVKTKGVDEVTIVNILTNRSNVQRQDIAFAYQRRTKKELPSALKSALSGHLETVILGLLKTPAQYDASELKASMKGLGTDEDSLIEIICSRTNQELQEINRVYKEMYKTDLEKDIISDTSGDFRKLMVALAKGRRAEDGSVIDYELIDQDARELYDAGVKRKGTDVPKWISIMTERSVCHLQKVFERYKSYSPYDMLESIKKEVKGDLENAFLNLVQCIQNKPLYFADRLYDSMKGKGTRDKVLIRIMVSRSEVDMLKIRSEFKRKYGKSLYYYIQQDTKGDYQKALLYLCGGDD
UniProt P08113, residues 22-802: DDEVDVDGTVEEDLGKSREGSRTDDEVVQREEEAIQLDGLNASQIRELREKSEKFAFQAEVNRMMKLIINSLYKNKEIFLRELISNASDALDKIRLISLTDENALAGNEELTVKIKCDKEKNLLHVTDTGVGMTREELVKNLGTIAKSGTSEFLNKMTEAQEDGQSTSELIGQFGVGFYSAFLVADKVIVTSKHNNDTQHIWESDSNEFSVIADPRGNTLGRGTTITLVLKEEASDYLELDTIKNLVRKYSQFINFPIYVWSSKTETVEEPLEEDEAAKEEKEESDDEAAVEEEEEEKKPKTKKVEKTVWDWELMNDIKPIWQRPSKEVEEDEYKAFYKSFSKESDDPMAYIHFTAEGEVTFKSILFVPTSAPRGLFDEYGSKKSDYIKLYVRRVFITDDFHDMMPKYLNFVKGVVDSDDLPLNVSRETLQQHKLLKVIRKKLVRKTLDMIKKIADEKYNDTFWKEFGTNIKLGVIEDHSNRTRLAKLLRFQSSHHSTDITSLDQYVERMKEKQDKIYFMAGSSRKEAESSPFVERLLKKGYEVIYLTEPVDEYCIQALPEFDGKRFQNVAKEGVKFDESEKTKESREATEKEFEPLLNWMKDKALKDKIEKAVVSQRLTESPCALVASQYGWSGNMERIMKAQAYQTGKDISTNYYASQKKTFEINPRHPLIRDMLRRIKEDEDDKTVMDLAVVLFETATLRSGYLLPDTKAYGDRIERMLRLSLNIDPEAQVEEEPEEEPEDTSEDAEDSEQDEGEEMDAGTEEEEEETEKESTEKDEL
UniProt Q62159: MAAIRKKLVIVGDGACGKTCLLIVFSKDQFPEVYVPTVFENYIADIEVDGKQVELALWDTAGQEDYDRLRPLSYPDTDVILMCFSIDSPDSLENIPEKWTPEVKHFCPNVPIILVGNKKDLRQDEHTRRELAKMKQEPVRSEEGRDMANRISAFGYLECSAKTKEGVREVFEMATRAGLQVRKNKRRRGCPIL
UniProt P08003, residues 21-638: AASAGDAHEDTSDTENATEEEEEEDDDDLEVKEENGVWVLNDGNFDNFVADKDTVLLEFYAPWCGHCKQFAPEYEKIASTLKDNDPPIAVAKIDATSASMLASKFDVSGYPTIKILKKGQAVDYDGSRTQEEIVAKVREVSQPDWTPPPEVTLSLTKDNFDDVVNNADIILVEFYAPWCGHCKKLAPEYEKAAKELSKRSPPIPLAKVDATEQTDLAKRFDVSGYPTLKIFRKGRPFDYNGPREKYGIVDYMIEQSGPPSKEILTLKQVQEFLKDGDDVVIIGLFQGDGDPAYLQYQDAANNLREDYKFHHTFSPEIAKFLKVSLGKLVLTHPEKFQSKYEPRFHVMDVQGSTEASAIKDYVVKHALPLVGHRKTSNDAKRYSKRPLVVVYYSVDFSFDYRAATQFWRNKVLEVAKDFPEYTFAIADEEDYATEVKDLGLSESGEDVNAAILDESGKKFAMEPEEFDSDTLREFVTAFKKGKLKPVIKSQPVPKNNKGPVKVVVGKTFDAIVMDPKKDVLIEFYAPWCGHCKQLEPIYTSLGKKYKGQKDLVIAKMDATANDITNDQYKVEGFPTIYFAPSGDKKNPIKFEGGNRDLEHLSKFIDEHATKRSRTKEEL
UniProt Q9D8Y0: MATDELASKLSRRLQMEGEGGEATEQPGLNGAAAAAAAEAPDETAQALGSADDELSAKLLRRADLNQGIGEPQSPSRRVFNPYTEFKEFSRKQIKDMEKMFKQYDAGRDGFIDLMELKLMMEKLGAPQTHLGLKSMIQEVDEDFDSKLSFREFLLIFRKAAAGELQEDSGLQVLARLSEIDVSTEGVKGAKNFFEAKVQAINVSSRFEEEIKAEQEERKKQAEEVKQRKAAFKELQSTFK
UniProt P60766: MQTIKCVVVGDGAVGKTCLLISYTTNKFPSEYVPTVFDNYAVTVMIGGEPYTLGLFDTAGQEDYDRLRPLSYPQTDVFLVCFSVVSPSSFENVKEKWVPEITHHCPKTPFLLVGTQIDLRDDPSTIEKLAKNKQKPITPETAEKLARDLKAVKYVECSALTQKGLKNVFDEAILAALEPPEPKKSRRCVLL
UniProt P13020, residues 26-780: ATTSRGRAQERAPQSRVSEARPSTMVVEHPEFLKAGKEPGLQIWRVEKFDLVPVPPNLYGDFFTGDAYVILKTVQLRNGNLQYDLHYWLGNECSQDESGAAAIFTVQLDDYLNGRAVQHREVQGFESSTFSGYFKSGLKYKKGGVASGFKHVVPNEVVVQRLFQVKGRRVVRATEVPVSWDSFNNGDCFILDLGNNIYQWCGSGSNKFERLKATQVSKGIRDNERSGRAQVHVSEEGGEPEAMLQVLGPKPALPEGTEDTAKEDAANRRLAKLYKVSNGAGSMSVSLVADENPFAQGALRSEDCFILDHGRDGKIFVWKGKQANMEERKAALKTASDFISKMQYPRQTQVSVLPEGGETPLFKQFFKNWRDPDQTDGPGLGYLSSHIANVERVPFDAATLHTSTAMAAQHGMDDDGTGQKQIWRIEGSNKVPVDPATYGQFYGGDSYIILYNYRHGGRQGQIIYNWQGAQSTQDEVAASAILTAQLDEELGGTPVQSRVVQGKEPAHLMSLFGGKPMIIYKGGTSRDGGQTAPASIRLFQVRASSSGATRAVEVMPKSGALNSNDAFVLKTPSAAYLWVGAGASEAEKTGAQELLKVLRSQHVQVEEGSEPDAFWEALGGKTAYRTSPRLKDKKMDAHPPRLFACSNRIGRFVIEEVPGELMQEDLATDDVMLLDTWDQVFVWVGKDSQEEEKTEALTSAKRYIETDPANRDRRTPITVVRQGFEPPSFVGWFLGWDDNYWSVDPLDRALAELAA
UniProt O08992: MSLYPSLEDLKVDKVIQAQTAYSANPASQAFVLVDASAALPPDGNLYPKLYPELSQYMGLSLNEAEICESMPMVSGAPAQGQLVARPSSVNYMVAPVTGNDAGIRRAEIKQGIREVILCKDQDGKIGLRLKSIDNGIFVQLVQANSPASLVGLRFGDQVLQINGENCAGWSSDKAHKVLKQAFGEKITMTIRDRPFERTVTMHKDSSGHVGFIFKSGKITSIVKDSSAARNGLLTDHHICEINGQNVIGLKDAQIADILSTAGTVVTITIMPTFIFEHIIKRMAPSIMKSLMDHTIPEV
UniProt P09103, residues 20-509: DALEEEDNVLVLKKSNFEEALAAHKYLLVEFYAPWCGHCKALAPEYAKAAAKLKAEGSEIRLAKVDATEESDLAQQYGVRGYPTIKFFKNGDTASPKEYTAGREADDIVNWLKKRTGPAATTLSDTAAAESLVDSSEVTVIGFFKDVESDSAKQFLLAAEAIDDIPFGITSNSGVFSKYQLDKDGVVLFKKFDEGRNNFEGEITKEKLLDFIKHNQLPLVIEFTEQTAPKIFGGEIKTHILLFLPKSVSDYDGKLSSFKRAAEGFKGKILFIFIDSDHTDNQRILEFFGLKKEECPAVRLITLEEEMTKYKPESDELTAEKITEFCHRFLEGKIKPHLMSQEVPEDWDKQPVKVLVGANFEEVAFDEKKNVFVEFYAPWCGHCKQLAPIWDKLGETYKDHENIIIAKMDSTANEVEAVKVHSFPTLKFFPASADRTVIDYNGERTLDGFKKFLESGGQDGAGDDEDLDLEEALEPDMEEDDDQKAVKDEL

T1: 3×FLAG–galectin-8 (stably expressed in RAW 264.7 cells) (mouse) (UniProt Q9JL15)
T1 sequence: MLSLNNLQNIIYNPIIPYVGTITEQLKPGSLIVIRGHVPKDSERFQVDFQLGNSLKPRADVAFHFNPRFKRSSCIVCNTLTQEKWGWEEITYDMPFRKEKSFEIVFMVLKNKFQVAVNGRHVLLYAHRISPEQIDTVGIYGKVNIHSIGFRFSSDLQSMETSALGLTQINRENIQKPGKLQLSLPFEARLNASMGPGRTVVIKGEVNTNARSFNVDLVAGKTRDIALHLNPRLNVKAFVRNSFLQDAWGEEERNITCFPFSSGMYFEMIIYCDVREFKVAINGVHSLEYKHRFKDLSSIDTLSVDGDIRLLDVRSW

B1: PDIA6 (protein, UniProt Q922R8 20-440)
chain: LYSSSDDVIELTPSNFNREVIQSDGLWLVEFYAPWCGHCQRLTPEWKKAATALKDVVKVGAVNADKHQSLGGQYGVQGFPTIKIFGANKNKPEDYQGGRTGEAIVDAALSALRQLVKDRLGGRSGGYSSGKQGRGDSSSKKDVVELTDDTFDKNVLDSEDVWMVEFYAPWCGHCKNLEPEWAAAATEVKEQTKGKVKLAAVDATVNQVLASRYGIKGFPTIKIFQKGESPVDYDGGRTRSDIVSRALDLFSDNAPPPELLEIINEDIAKKTCEEHQLCVVAVLPHILDTGAAGRNSYLEVLLKLADKYKKKMWGWLWTEAGAQYELENALGIGGFGYPAMAAINARKMKFALLKGSFSEQGINEFLRELSFGRGSTAPVGGGSFPTITPREPWDGKDGELPVEDDIDLSDVELDDLEKDEL
B2: thioredoxin (protein, UniProt P10639 1-105)
chain: MVKLIESKEAFQEALAAAGDKLVVVDFSATWCGPCKMIKPFFHSLCDKYSNVVFLEVDVDDCQDVAADCEVKCMPTFQFYKKGQKVGEFSGANKEKLEASITEYA
B3: PRDX1 (protein, UniProt P35700 1-199)
chain: MSSGNAKIGYPAPNFKATAVMPDGQFKDISLSEYKGKYVVFFFYPLDFTFVCPTEIIAFSDRADEFKKLNCQVIGASVDSHFCHLAWINTPKKQGGLGPMNIPLISDPKRTIAQDYGVLKADEGISFRGLFIIDDKGILRQITINDLPVGRSVDEIIRLVQAFQFTDKHGEVCPAGWKPGSDTIKPDVNKSKEYFSKQK
B4: PRDX2 (protein, UniProt Q61171 1-198)
chain: MASGNAQIGKSAPDFTATAVVDGAFKEIKLSDYRGKYVVLFFYPLDFTFVCPTEIIAFSDHAEDFRKLGCEVLGVSVDSQFTHLAWINTPRKEGGLGPLNIPLLADVTKSLSQNYGVLKNDEGIAYRGLFIIDAKGVLRQITVNDLPVGRSVDEALRLVQAFQYTDEHGEVCPAGWKPGSDTIKPNVDDSKEYFSKHN
B5: lysozyme M (protein, UniProt P08905 19-148)
chain: KVYERCEFARTLKRNGMAGYYGVSLADWVCLAQHESNYNTRATNYNRGDQSTDYGIFQINSRYWCNDGKTPRAVNACGINCSALLQDDITAAIQCAKRVVRDPQGIRAWVAWRAHCQNRDLSQYIRNCGV
B6: macrophage capping protein (protein, UniProt P24452 1-352)
chain: MYTPIPQSGSPFPASVQDPGLHIWRVEKLKPVPIARESHGIFFSGDSYLVLHNGPEEASHLHLWIGQQSSRDEQGACAVLAVHLNTLLGERPVQHREVQGNESDLFMSYFPRGLKYYREGGVESAFHKTTSGARGAAIRKLYQVKGKKNIRATERPLSWDSFNTGDCFILDLGQNIFAWCGGKSNILERNKARDLALAIRDSERQGKAQVEIITDGEEPAEMIQVLGPKPALKEGNPEEDITADQTRPNAQAAALYKVSDATGQMNLTKVADSSPFASELLIPDDCFVLDNGLCAQIYIWKGRKANEKERQAALQVADGFISRMRYSPNTQVEILPQGRESPIFKQFFKNWK
B7: lysozyme C1 (protein, UniProt P17897 19-148)
chain: KVYNRCELARILKRNGMDGYRGVKLADWVCLAQHESNYNTRATNYNRGDRSTDYGIFQINSRYWCNDGKTPRSKNACGINCSALLQDDITAAIQCAKRVVRDPQGIRAWVAWRTQCQNRDLSQYIRNCGV
B8: 14-3-3-gamma/YWAHAG (protein, UniProt P61982 1-247)
chain: MVDREQLVQKARLAEQAERYDDMAAAMKNVTELNEPLSNEERNLLSVAYKNVVGARRSSWRVISSIEQKTSADGNEKKIEMVRAYREKIEKELEAVCQDVLSLLDNYLIKNCSETQYESKVFYLKMKGDYYRYLAEVATGEKRATVVESSEKAYSEAHEISKEHMQPTHPIRLGLALNYSVFYYEIQNAPEQACHLAKTAFDDAIAELDTLNEDSYKDSTLIMQLLRDNLTLWTSDQQDDDGGEGNN
B9: LAMP1 (protein, UniProt P11438 25-406)
chain: LFEVKNNGTTCIMASFSASFLTTYETANGSQIVNISLPASAEVLKNGSSCGKENVSDPSLTITFGRGYLLTLNFTKNTTRYSVQHMYFTYNLSDTEHFPNAISKEIYTMDSTTDIKADINKAYRCVSDIRVYMKNVTVVLRDATIQAYLSSGNFSKEETHCTQDGPSPTTGPPSPSPPLVPTNPTVSKYNVTGNNGTCLLASMALQLNITYLKKDNKTVTRAFNISPNDTSSGSCGINLVTLKVENKNRALELQFGMNASSSLFFLQGVRLNMTLPDALVPTFSISNHSLKALQATVGNSYKCNTEEHIFVSKMLSLNVFSVQVQAFKVDSDRFGSVEECVQDGNNMLIPIAVGGALAGLVLIVLIAYLIGRKRSHAGYQTI
B10: LAMP2 (protein, UniProt P17047 26-415)
chain: LIVNLTDSKGTCLYAEWEMNFTITYETTNQTNKTITIAVPDKATHDGSSCGDDRNSAKIMIQFGFAVSWAVNFTKEASHYSIHDIVLSYNTSDSTVFPGAVAKGVHTVKNPENFKVPLDVIFKCNSVLTYNLTPVVQKYWGIHLQAFVQNGTVSKNEQVCEEDQTPTTVAPIIHTTAPSTTTTLTPTSTPTPTPTPTPTVGNYSIRNGNTTCLLATMGLQLNITEEKVPFIFNINPATTNFTGSCQPQSAQLRLNNSQIKYLDFIFAVKNEKRFYLKEVNVYMYLANGSAFNISNKNLSFWDAPLGSSYMCNKEQVLSVSRAFQINTFNLKVQPFNVTKGQYSTAQDCSADEDNFLVPIAVGAALGGVLILVLLAYFIGLKRHHTGYEQF
B11: cyclophilin C-associated protein (protein, UniProt Q07797 19-577)
chain: TEDGDMRLVNGASANEGRVEIFYRGRWGTVCDNLWNLLDAHVVCRALGYENATQALGRAAFGPGKGPIMLDEVECTGTESSLASCRSLGWMVSRCGHEKDAGVVCSNDTTGLHILDLSGELSDALGQIFDSQQGCDLFIQVTGQGYEDLSLCAHTLILRTNPEAQALWQVVGSSVIMRVDAECMPVVRDFLRYFYSRRIEVSMSSVKCLHKLASAYGATELQDYCGRLFATLLPQDPTFHTPLDLYAYARATGDSMLEDLCVQFLAWNFEPLTQSESWSAVPTTLIQALLPKSELAVSSELDLLKAVDQWSTETIASHEDIERLVEQVRFPMMLPQELFELQFNLSLYQDHQALFQRKTMQALEFHTVPVEVLAKYKGLNLTEDTYKPRLYTSSTWSSLVMASTWRAQRYEYNRYNQLYTYGYGSVARYNSYQSFQTPQHPSFLFKDKQISWSATYLPTMQSCWNYGFSCTSNELPVLGLTTSSYSNPTIGYENRVLILCGGYSVVDVTSFEGSKAPIPTALDTNSSKTPSLFPCASGAFSSFRVVIRPFYLTNSTDMV
B12: calnexin (protein, UniProt P35564 21-591)
chain: HDGHDDDAIDIEDDLDDVIEEVEDSKSKSDASTPPSPKVTYKAPVPTGEVYFADSFDRGSLSGWILSKAKKDDTDDEIAKYDGKWEVDEMKETKLPGDKGLVLMSRAKHHAISAKLNKPFLFDTKPLIVQYEVNFQNGIECGGAYVKLLSKTAELSLDQFHDKTPYTIMFGPDKCGEDYKLHFIFRHKNPKTGVYEEKHAKRPDADLKTYFTDKKTHLYTLILNPDNSFEILVDQSVVNSGNLLNDMTPPVNPSREIEDPEDRKPEDWDERPKIADPDAVKPDDWDEDAPSKIPDEEATKPEGWLDDEPEYIPDPDAEKPEDWDEDMDGEWEAPQIANPKCESAPGCGVWQRPMIDNPNYKGKWKPPMIDNPNYQGIWKPRKIPNPDFFEDLEPFKMTPFSAIGLELWSMTSDIFFDNFIISGDRRVVDDWANDGWGLKKAADGAAEPGVVLQMLEAAEERPWLWVVYILTVALPVFLVILFCCSGKKQSNAMEYKKTDAPQPDVKDEEGKEEEKNKRDEEEEEEKLEEKQKSDAEEDGVTGSQDEEDSKPKAEEDEILNRSPRNRKPRRE

Biological target: T1, 3×FLAG–galectin-8 (stably expressed in RAW 264.7 cells) (mouse)
Assay: affinity purification with mass spectrometry; anti-FLAG IP of 3×FLAG–galectin-8 from RAW 264.7 cells infected with ΔactA L. monocytogenes (1 or 2 h postinfection); associated proteins identified by LC/MS

Molecule | binding
PDIA3 (from UniProt P27773 25-505) | binds
talin-1 (from UniProt P26039 1-2541) | binds
Rab GDI [GDP dissociation inhibitor] (mouse (endogenous in RAW 264.7)) | binds
ANXA5 (from UniProt P48036 1-319) | binds
14-3-3-epsilon/YWAHAE (from UniProt P62259 1-255) | binds
Rho GDI (mouse (endogenous in RAW 264.7)) | binds
cathepsin Z (from UniProt Q9WUU7 64-306) | binds
HGMB1 (from UniProt P63158 1-215) | binds
macrosialin/CD68 (from UniProt P31996 21-326) | binds
profilin (mouse (endogenous in RAW 264.7)) | binds
ANXA2 (from UniProt P07356 1-339) | binds
HSP90B1 (from UniProt P08113 22-802) | binds
RhoC (from UniProt Q62159 1-193) | binds
Rab7 (mouse (endogenous in RAW 264.7)) | binds
PDIA4 (from UniProt P08003 21-638) | binds
EFhd2 (from UniProt Q9D8Y0 1-240) | binds

Molecule | binding
Cdc42 (from UniProt P60766 1-191) | binds
gelsolin (from UniProt P13020 26-780) | binds
syntenin-1/SDCBP (endogenous, RAW 264.7 cells) (from UniProt O08992 1-299) | binds
PDIA1 (from UniProt P09103 20-509) | binds
B1 | binds
B2 | binds
B3 | binds
B4 | binds
B5 | binds
B6 | binds
B7 | binds
B8 | binds
B9 | binds
B10 | binds
B11 | binds
B12 | binds

No constants are given. Whether binding was seen depends on the method and setting. In cells and extracts the contact can be indirect. These calls come from enrichment with a bait or labelling near it, and not all partners need be listed. Where a sequence is shown, tags or fusion partners need not be part of it.
